Patent US9314540B2, “Compounds for use in imaging, diagnosing and/or treatment of diseases of the central nervous system” (PIRAMAL IMAGING SA, priority 2010, dated 2016)

Test system: MAO-B
Test: PET time activity curves in cynomolgus monkey brain regions
Type: in vivo
Details: brain regions investigated, steady state phase

[2H]C([2H])(C#C)N(C)[C@H](CF)Cc1ccccc1 [[^18F] D2 Deprenyl, N-[(2S)-1-[^18F]fluoro-3-phenylpropan-2-yl]-N-methyl(1,1-^2H2)— prop-2-yn-1-amine]
decrease in signal intensity from [18F] Deprenyl towards [18F] D2 Deprenyl: 6-8 times

No dose or concentration is given here for some results.
